Measured values from article PMC9069051.
Results are given in words; binding and its absence hold for the method and conditions named. In cells and extracts the contact can be indirect. A yes stands for co-enrichment or nearness to the bait. Other partners may have been found. Sequences can lack the tags named with a protein. Blank lines part the entries; values can stand above or below the molecule they belong to.

By UniProt entry, the sequences of proteins in these tests, tags left out. Residues count along the entry.
UniProt O95819: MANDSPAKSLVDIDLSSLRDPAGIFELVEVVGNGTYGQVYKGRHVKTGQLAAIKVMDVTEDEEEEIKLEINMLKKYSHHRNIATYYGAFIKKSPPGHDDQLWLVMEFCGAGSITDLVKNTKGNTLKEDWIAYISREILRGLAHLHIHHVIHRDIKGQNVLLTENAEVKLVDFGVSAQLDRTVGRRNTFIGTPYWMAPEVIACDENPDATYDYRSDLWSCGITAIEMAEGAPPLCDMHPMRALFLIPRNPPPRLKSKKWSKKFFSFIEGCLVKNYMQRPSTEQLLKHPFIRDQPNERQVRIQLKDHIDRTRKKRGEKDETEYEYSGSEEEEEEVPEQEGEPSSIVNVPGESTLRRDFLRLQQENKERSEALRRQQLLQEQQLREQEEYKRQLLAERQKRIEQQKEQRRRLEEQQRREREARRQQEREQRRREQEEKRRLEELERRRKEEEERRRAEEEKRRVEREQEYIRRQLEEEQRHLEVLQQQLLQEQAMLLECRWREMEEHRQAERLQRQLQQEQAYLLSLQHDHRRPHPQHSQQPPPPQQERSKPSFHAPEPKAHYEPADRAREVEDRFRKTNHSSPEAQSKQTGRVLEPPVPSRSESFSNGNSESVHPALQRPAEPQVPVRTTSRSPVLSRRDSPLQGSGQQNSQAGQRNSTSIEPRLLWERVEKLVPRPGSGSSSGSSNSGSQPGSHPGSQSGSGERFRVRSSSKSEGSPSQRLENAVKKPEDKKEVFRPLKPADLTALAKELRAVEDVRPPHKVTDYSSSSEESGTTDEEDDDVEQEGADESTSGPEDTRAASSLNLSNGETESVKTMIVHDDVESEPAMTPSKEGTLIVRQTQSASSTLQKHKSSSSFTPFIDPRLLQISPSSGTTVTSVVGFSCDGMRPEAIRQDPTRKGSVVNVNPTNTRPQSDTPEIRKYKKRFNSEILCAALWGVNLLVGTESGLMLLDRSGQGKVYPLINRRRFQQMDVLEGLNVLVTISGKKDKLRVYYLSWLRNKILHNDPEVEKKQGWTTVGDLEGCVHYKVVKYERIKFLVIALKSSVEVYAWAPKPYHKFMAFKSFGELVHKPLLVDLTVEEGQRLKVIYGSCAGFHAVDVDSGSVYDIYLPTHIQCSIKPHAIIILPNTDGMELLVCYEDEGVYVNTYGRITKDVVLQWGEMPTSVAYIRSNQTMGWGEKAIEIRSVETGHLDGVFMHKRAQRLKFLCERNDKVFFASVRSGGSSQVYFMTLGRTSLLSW
UniProt P49023: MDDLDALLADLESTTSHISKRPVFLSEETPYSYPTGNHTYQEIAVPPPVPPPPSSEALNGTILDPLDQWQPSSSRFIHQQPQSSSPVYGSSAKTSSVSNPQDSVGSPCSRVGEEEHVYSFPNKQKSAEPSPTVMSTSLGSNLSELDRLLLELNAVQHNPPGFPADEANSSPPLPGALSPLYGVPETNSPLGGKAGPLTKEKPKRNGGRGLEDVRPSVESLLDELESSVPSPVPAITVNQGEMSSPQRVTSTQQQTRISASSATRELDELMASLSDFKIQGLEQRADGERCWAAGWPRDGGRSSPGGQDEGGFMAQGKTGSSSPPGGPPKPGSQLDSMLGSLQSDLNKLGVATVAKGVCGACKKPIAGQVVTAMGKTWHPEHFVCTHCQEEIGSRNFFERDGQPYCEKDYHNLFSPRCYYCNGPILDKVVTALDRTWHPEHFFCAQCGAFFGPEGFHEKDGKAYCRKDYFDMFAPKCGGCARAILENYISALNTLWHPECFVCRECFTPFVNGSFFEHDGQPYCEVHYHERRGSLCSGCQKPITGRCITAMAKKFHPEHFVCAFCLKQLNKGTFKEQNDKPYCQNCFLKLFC
UniProt P07355: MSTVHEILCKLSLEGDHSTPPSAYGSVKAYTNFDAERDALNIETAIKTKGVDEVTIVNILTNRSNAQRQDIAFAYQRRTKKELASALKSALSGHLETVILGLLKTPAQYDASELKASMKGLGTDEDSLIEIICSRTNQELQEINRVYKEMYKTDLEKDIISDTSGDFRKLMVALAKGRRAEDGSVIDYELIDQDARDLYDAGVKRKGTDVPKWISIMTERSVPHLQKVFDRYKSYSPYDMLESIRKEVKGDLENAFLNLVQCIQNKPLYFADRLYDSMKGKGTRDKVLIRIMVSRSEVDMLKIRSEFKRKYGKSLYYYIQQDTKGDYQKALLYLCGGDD
UniProt Q06481, residues 32-763: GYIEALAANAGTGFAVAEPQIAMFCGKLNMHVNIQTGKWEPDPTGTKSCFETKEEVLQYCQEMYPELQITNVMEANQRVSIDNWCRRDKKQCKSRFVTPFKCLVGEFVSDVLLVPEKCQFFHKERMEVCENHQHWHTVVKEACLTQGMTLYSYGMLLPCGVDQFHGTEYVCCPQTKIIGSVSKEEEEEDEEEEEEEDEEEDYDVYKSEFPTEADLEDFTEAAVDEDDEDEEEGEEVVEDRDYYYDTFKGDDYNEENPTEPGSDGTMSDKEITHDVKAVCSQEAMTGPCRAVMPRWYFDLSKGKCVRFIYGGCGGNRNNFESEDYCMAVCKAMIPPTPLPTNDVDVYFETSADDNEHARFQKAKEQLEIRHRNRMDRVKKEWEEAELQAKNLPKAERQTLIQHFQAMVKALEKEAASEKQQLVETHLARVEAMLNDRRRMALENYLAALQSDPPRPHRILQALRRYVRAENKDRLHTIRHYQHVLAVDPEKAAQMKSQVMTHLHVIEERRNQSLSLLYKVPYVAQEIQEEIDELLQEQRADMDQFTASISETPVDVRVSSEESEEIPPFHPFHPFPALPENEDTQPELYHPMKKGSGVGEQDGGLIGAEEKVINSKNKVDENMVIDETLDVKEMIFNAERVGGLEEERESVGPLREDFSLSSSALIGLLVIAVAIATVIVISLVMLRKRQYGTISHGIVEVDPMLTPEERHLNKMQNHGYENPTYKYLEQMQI
UniProt P10586, residues 30-1907: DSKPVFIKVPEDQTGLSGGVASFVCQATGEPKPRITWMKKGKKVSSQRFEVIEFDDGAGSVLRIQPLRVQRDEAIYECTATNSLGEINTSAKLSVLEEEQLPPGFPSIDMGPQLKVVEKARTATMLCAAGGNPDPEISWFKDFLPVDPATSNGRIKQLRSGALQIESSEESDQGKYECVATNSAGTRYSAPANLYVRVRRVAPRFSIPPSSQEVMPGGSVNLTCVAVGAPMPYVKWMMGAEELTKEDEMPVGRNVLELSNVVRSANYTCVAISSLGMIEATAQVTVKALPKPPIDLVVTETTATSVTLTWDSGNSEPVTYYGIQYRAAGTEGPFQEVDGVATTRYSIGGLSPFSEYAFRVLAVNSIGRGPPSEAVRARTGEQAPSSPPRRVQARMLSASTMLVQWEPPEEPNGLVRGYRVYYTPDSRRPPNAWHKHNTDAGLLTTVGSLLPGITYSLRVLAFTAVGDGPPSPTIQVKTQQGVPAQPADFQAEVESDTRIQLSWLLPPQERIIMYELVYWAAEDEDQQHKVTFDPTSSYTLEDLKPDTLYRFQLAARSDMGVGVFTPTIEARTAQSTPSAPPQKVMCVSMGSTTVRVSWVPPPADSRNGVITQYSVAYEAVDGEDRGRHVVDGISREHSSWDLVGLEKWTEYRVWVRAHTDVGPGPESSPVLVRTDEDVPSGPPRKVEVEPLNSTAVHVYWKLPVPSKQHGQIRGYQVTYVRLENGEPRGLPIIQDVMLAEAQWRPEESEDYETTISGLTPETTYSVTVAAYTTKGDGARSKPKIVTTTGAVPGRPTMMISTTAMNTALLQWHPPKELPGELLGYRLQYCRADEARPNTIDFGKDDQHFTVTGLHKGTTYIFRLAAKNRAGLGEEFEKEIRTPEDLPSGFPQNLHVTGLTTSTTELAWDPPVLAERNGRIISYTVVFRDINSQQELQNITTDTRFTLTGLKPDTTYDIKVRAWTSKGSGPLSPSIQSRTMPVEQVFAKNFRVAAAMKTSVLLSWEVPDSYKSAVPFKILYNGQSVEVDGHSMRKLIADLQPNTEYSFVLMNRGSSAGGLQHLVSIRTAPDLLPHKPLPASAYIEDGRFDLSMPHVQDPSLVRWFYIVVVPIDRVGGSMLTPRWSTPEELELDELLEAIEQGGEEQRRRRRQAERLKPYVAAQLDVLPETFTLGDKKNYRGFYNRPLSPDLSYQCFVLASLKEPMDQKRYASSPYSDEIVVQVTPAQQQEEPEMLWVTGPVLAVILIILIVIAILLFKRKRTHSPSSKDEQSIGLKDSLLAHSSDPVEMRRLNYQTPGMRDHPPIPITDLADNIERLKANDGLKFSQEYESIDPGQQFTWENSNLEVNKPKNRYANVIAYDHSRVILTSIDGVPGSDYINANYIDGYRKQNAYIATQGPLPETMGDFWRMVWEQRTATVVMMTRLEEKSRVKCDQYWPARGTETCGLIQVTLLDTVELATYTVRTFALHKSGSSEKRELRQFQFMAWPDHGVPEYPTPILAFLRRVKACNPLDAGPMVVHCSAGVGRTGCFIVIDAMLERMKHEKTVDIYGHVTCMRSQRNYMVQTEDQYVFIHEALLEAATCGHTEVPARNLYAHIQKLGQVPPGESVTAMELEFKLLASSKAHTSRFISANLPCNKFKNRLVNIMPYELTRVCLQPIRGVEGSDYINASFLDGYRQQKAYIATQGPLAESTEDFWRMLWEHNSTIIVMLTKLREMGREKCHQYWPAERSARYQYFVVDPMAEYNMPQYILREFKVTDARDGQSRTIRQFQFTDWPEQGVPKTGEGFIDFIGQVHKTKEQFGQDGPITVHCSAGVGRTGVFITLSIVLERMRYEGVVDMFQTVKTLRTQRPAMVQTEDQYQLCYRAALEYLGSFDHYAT

Molecular target: ALK tyrosine kinase receptor (human) (UniProt Q9UM73)
Test: affinity purification with mass spectrometry; HEK 293 Tet-On 3G cells crosslinked with 0.25% formaldehyde for 10 min, lysed; ALK-FLAG precipitated on anti-FLAG M2 agarose (4°C, 2 h), eluted with Flag peptide; label-free quantitation, Dox+ against Dox- cells, q < 0.05

Molecule: Tyrosine-protein phosphatase non-receptor type 11 (from UniProt Q06124 1-593) (enzyme)
binding: binds

Molecule: Mitogen-activated protein kinase kinase kinase kinase 4 (from UniProt O95819 1-1239) (enzyme)
binding: binds

Molecule: Paxillin (from UniProt P49023 1-591)
binding: binds

Molecule: Annexin A2 (from UniProt P07355 1-339)
binding: binds

B1: Extended synaptotagmin-2 (protein, UniProt A0FGR8 1-921)
chain: MTANRDAALSSHRHPGCAQRPRTPTFASSSQRRSAFGFDDGNFPGLGERSHAPGSRLGARRRAKTARGLRGHRQRGAGAGLSRPGSARAPSPPRPGGPENPGGVLSVELPGLLAQLARSFALLLPVYALGYLGLSFSWVLLALALLAWCRRSRGLKALRLCRALALLEDEERVVRLGVRACDLPAWVHFPDTERAEWLNKTVKHMWPFICQFIEKLFRETIEPAVRGANTHLSTFSFTKVDVGQQPLRINGVKVYTENVDKRQIILDLQISFVGNCEIDLEIKRYFCRAGVKSIQIHGTMRVILEPLIGDMPLVGALSIFFLRKPLLEINWTGLTNLLDVPGLNGLSDTIILDIISNYLVLPNRITVPLVSEVQIAQLRFPVPKGVLRIHFIEAQDLQGKDTYLKGLVKGKSDPYGIIRVGNQIFQSRVIKENLSPKWNEVYEALVYEHPGQELEIELFDEDPDKDDFLGSLMIDLIEVEKERLLDEWFTLDEVPKGKLHLRLEWLTLMPNASNLDKVLTDIKADKDQANDGLSSALLILYLDSARNLPSGKKISSNPNPVVQMSVGHKAQESKIRYKTNEPVWEENFTFFIHNPKRQDLEVEVRDEQHQCSLGNLKVPLSQLLTSEDMTVSQRFQLSNSGPNSTIKMKIALRVLHLEKRERPPDHQHSAQVKRPSVSKEGRKTSIKSHMSGSPGPGGSNTAPSTPVIGGSDKPGMEEKAQPPEAGPQGLHDLGRSSSSLLASPGHISVKEPTPSIASDISLPIATQELRQRLRQLENGTTLGQSPLGQIQLTIRHSSQRNKLIVVVHACRNLIAFSEDGSDPYVRMYLLPDKRRSGRRKTHVSKKTLNPVFDQSFDFSVSLPEVQRRTLDVAVKNSGGFLSKDKGLLGKVLVALASEELAKGWTQWYDLTEDGTRPQAMT
binding: binds

B4: Flotillin-1 (protein, UniProt O75955 1-427)
chain: MFFTCGPNEAMVVSGFCRSPPVMVAGGRVFVLPCIQQIQRISLNTLTLNVKSEKVYTRHGVPISVTGIAQVKIQGQNKEMLAAACQMFLGKTEAEIAHIALETLEGHQRAIMAHMTVEEIYKDRQKFSEQVFKVASSDLVNMGISVVSYTLKDIHDDQDYLHSLGKARTAQVQKDARIGEAEAKRDAGIREAKAKQEKVSAQYLSEIEMAKAQRDYELKKAAYDIEVNTRRAQADLAYQLQVAKTKQQIEEQRVQVQVVERAQQVAVQEQEIARREKELEARVRKPAEAERYKLERLAEAEKSQLIMQAEAEAASVRMRGEAEAFAIGARARAEAEQMAKKAEAFQLYQEAAQLDMLLEKLPQVAEEISGPLTSANKITLVSSGSGTMGAAKVTGEVLDILTRLPESVERLTGVSISQVNHKPLRTA
binding: binds

B6: LIM and SH3 domain protein 1 (protein, UniProt Q14847 1-261)
chain: MNPNCARCGKIVYPTEKVNCLDKFWHKACFHCETCKMTLNMKNYKGYEKKPYCNAHYPKQSFTMVADTPENLRLKQQSELQSQVRYKEEFEKNKGKGFSVVADTPELQRIKKTQDQISNIKYHEEFEKSRMGPSGGEGMEPERRDSQDGSSYRRPLEQQQPHHIPTSAPVYQQPQQQPVAQSYGGYKEPAAPVSIQRSAPGGGGKRYRAVYDYSAADEDEVSFQDGDTIVNVQQIDDGWMYGTVERTGDTGMLPANYVEAI
binding: binds

Second part, the molecule after the results:

binding: binds
Molecule: Amyloid-like protein 2 (from UniProt Q06481 32-763)

binding: binds
Molecule: Receptor-type tyrosine-protein phosphatase F (from UniProt P10586 30-1907)

binding: binds
B2: 2',3'-cyclic-nucleotide 3'-phosphodiesterase (protein, UniProt P09543 1-421)
chain: MNRGFSRKSHTFLPKIFFRKMSSSGAKDKPELQFPFLQDEDTVATLLECKTLFILRGLPGSGKSTLARVIVDKYRDGTKMVSADAYKITPGARGAFSEEYKRLDEDLAAYCRRRDIRILVLDDTNHERERLEQLFEMADQYQYQVVLVEPKTAWRLDCAQLKEKNQWQLSADDLKKLKPGLEKDFLPLYFGWFLTKKSSETLRKAGQVFLEELGNHKAFKKELRQFVPGDEPREKMDLVTYFGKRPPGVLHCTTKFCDYGKAPGAEEYAQQDVLKKSYSKAFTLTISALFVTPKTTGARVELSEQQLQLWPSDVDKLSPTDNLPRGSRAHITLGCAADVEAVQTGLDLLEILRQEKGGSRGEEVGELSRGKLYSLGNGRWMLTLAKNMEVRAIFTGYYGKGKPVPTQGSRKGGALQSCTII

binding: binds
B3: Extended synaptotagmin-1 (protein, UniProt Q9BSJ8 1-1104)
chain: MERSPGEGPSPSPMDQPSAPSDPTDQPPAAHAKPDPGSGGQPAGPGAAGEALAVLTSFGRRLLVLIPVYLAGAVGLSVGFVLFGLALYLGWRRVRDEKERSLRAARQLLDDEEQLTAKTLYMSHRELPAWVSFPDVEKAEWLNKIVAQVWPFLGQYMEKLLAETVAPAVRGSNPHLQTFTFTRVELGEKPLRIIGVKVHPGQRKEQILLDLNISYVGDVQIDVEVKKYFCKAGVKGMQLHGVLRVILEPLIGDLPFVGAVSMFFIRRPTLDINWTGMTNLLDIPGLSSLSDTMIMDSIAAFLVLPNRLLVPLVPDLQDVAQLRSPLPRGIIRIHLLAARGLSSKDKYVKGLIEGKSDPYALVRLGTQTFCSRVIDEELNPQWGETYEVMVHEVPGQEIEVEVFDKDPDKDDFLGRMKLDVGKVLQASVLDDWFPLQGGQGQVHLRLEWLSLLSDAEKLEQVLQWNWGVSSRPDPPSAAILVVYLDRAQDLPLKKGNKEPNPMVQLSIQDVTQESKAVYSTNCPVWEEAFRFFLQDPQSQELDVQVKDDSRALTLGALTLPLARLLTAPELILDQWFQLSSSGPNSRLYMKLVMRILYLDSSEICFPTVPGCPGAWDVDSENPQRGSSVDAPPRPCHTTPDSQFGTEHVLRIHVLEAQDLIAKDRFLGGLVKGKSDPYVKLKLAGRSFRSHVVREDLNPRWNEVFEVIVTSVPGQELEVEVFDKDLDKDDFLGRCKVRLTTVLNSGFLDEWLTLEDVPSGRLHLRLERLTPRPTAAELEEVLQVNSLIQTQKSAELAAALLSIYMERAEDLPLRKGTKHLSPYATLTVGDSSHKTKTISQTSAPVWDESASFLIRKPHTESLELQVRGEGTGVLGSLSLPLSELLVADQLCLDRWFTLSSGQGQVLLRAQLGILVSQHSGVEAHSHSYSHSSSSLSEEPELSGGPPHITSSAPELRQRLTHVDSPLEAPAGPLGQVKLTLWYYSEERKLVSIVHGCRSLRQNGRDPPDPYVSLLLLPDKNRGTKRRTSQKKRTLSPEFNERFEWELPLDEAQRRKLDVSVKSNSSFMSRERELLGKVQLDLAETDLSQGVARWYDLMDNKDKGSS

binding: binds
B5: SHC-transforming protein 1 (protein, UniProt P29353 1-583)
chain: MDLLPPKPKYNPLRNESLSSLEEGASGSTPPEELPSPSASSLGPILPPLPGDDSPTTLCSFFPRMSNLRLANPAGGRPGSKGEPGRAADDGEGIVGAAMPDSGPLPLLQDMNKLSGGGGRRTRVEGGQLGGEEWTRHGSFVNKPTRGWLHPNDKVMGPGVSYLVRYMGCVEVLQSMRALDFNTRTQVTREAISLVCEAVPGAKGATRRRKPCSRPLSSILGRSNLKFAGMPITLTVSTSSLNLMAADCKQIIANHHMQSISFASGGDPDTAEYVAYVAKDPVNQRACHILECPEGLAQDVISTIGQAFELRFKQYLRNPPKLVTPHDRMAGFDGSAWDEEEEEPPDHQYYNDFPGKEPPLGGVVDMRLREGAAPGAARPTAPNAQTPSHLGATLPVGQPVGGDPEVRKQMPPPPPCPGRELFDDPSYVNVQNLDKARQAVGGAGPPNPAINGSAPRDLFDMKPFEDALRVPPPPQSVSMAEQLRGEPWFHGKLSRREAEALLQLNGDFLVRESTTTPGQYVLTGLQSGQPKHLLLVDPEGVVRTKDHRFESVSHLISYHMDNHLPIISAGSELCLQQPVERKL

binding: binds
B7: UBX domain-containing protein 6 (protein, UniProt Q9BZV1 1-441)
chain: MKKFFQEFKADIKFKSAGPGQKLKESVGEKAHKEKPNQPAPRPPRQGPTNEAQMAAAAALARLEQKQSRAWGPTSQDTIRNQVRKELQAEATVSGSPEAPGTNVVSEPREEGSAHLAVPGVYFTCPLTGATLRKDQRDACIKEAILLHFSTDPVAASIMKIYTFNKDQDRVKLGVDTIAKYLDNIHLHPEEEKYRKIKLQNKVFQERINCLEGTHEFFEAIGFQKVLLPAQDQEDPEEFYVLSETTLAQPQSLERHKEQLLAAEPVRAKLDRQRRVFQPSPLASQFELPGDFFNLTAEEIKREQRLRSEAVERLSVLRTKAMREKEEQRGLRKYNYTLLRVRLPDGCLLQGTFYARERLGAVYGFVREALQSDWLPFELLASGGQKLSEDENLALNECGLVPSALLTFSWDMAVLEDIKAAGAEPDSILKPELLSAIEKLL

binding: binds
B8: FAS-associated factor 2 (protein, UniProt Q96CS3 1-445)
chain: MAAPEERDLTQEQTEKLLQFQDLTGIESMDQCRHTLEQHNWNIEAAVQDRLNEQEGVPSVFNPPPSRPLQVNTADHRIYSYVVSRPQPRGLLGWGYYLIMLPFRFTYYTILDIFRFALRFIRPDPRSRVTDPVGDIVSFMHSFEEKYGRAHPVFYQGTYSQALNDAKRELRFLLVYLHGDDHQDSDEFCRNTLCAPEVISLINTRMLFWACSTNKPEGYRVSQALRENTYPFLAMIMLKDRRMTVVGRLEGLIQPDDLINQLTFIMDANQTYLVSERLEREERNQTQVLRQQQDEAYLASLRADQEKERKKREERERKRRKEEEVQQQKLAEERRRQNLQEEKERKLECLPPEPSPDDPESVKIIFKLPNDSRVERRFHFSQSLTVIHDFLFSLKESPEKFQIEANFPRRVLPCIPSEEWPNPPTLQEAGLSHTEVLFVQDLTDE

binding: binds
B9: GDP-mannose 4,6 dehydratase (enzyme, UniProt O60547 1-372)
chain: MAHAPARCPSARGSGDGEMGKPRNVALITGITGQDGSYLAEFLLEKGYEVHGIVRRSSSFNTGRIEHLYKNPQAHIEGNMKLHYGDLTDSTCLVKIINEVKPTEIYNLGAQSHVKISFDLAEYTADVDGVGTLRLLDAVKTCGLINSVKFYQASTSELYGKVQEIPQKETTPFYPRSPYGAAKLYAYWIVVNFREAYNLFAVNGILFNHESPRRGANFVTRKISRSVAKIYLGQLECFSLGNLDAKRDWGHAKDYVEAMWLMLQNDEPEDFVIATGEVHSVREFVEKSFLHIGKTIVWEGKNENEVGRCKETGKVHVTVDLKYYRPTEVDFLQGDCTKAKQKLNWKPRVAFDELVREMVHADVELMRTNPNA
